From patent US20210300992A1
Results are given in words; binding and its absence hold for the method and conditions named. Some results given as binding are weak or reduced against the parent protein; the word gives no strength. For part of these data: Where a sequence is shown, tags or fusion partners need not be part of it.

The chains behind the UniProt entries cited, without tags or fusion partners. Residues count along the entry.
UniProt P15018, residues 23-202: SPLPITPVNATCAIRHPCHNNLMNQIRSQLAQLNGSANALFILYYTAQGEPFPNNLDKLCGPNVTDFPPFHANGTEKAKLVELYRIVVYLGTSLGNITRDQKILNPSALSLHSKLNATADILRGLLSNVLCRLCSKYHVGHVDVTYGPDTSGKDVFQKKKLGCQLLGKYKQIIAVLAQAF

How the values were obtained:
[1] = target: LIF displayed on the surface of yeast (UniProt P15018); assay: yeast-displayed LIF, anti-Fc detection by flow cytometry
human LIF-His (human) [2] = target: human LIF-His (human) (UniProt P15018); assay: competitive binding assay: excess inhibitor against LIF-His on yeast-displayed wild-type LIFR or gp130
human LIF-His (human) [3] = target: human LIF-His (human) (UniProt P15018); assay: bridging assay on yeast: inhibitor bound at saturation to yeast-displayed LIF, excess washed away, LIF-His added at 10 or 100 nM; anti-His fluorescence normalized to no LIF-His
human LIF-His (human) [4] = target: human LIF-His (human) (UniProt P15018); assay: multiple LIF binding assay: inhibitor bound to yeast-displayed LIF bridges soluble LIF-His (10 nM, 100 nM), anti-His detection
[5] = target: human leukemia inhibitory factor (LIF), soluble (human) (UniProt P15018); assay: KinExA with soluble human LIF; inhibitor titrated
[6] = target: human leukemia inhibitory factor (LIF), soluble (human) (UniProt P15018); assay: yeast surface display, flow cytometry; binding score from fluorescence at 100 pM and 1 nM human LIF, normalized to wild-type
[7] = target: human leukemia inhibitory factor (LIF), soluble (human) (UniProt P15018); assay: yeast surface display, flow cytometry; binding score to human LIF calculated as for FIG. 3 B (10 pM and 100 pM LIF), normalized to wild-type
human LIF-His (human) [8] = target: human LIF-His (human) (UniProt P15018); assay: competition on yeast: displayed wild-type LIFR or gp130 saturated with LIF-His, inhibitor added in excess; anti-His signal normalized to LIF alone
[9] = target: LIF displayed on the surface of yeast (UniProt P15018); assay: yeast-displayed LIF loaded with inhibitor, excess washed away, soluble LIF-His as competitor for 24 hours; anti-Fc fluorescence normalized to a control without wash and without soluble LIF
human LIF-His (human) [10] = target: human LIF-His (human) (UniProt P15018); assay: simultaneous binding assay: LIF held by yeast-displayed gp130 or LIFR, anti-Fc detection

Measured: binding

B1: … (receptor)
yeast-displayed receptor fragment: QKKGAPHDLKCVTNNLQVWNCSWKAPSGTGRGTDYEVCIENRSRSCYQLEKTSIKIPALSHGDYEITINSLHDFGSSTSKFTLNEQNVSLIPDTPEILNLSADFSTSTLYLKWNDRGSVFPHRSNVIWEIKVLRKESMELVKLVTHNTTLNGKDTLHHWSWASDMPLECAIHFVEIRCYIDNLHFSGLEEWSDWSPVKNISWIPDSQTKVFPQDKVVPVGSDITFCCVSQEKVLSALIGRTDCPLIHLDGENVAIKVRNVSASASSGTNVVFITEDDIFGTVIFAGYPPDTPQQLNCETHDLKEIICSWNPGRVTALVGPRATSYTLVESFSGKYVRLKRAEAPTNESYQLLFQMLPNQEIYNFTLNAHNPLGRSQSTILVNITEKVYPHTPTSFKVKDINSTAVKLSWHLPGNFAKINFLCEIEIKKSNSVQEQRNVTIKGVENSSYLVALDKLNPYTLYTFRIRCSTETFWKWSKWSNKKQHLTTEAS
binds: [1] | [1]; record 2 | human LIF-His (human) [2] | human LIF-His (human) [2]; record 2 | human LIF-His (human) [3] | human LIF-His (human) [4] | [5] | [6] | [6]; record 2 | [7] | [7]; record 2 | [7]; record 3 | [7]; record 4 | [7]; record 5 | [7]; record 6 | human LIF-His (human) [8] | human LIF-His (human) [8]; record 2 | [9] | [9]; record 2 | human LIF-His (human) [10] | human LIF-His (human) [10]; record 2
